Taken from: PubChem BioAssay AID1224830 (NIAID, 2016)
Screen: 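Genes whose knock-down alters the TNF-alpha reporter response to LPS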 (primary screen). System: human THP-1 monocytic leukaemia cells, TNF dual-luciferase reporter clone, PMA-differentiated to macrophage-like cells. Reagent: siRNA pool against human genes, 50 nM. Timing: LPS for 4 h, given about 3 days after siRNA transfection. Conditions: bacterial LPS (TLR4 ligand), 10 ng/ml. Read-out: 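TNF firefly reporter luminescence divided by renilla, normalised to the plate median, then turned into a robust z-score for each replicate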. Scale: TNF reporter robust z-score: higher = stronger TNF reporter response to LPS. Hit rule: 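Each well counts as active if its z-score is over 2.8 or under -1.5; controls are left without a call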.
This is a random part of about 18,000 deposited reagents. Of all reagents, about 2,900 (16%) are marked active. 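Calls are made per well; low scores hint the gene aids the LPS response, high scores that it dampens it.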 A number with no mark means an inactive call. Repeated entries: four replicate wells of each siRNA pool.

gene knocked down	TNF reporter robust z-score
MRPL58	0.09
MRPL58	0.53
MRPL58	1.32
MRPL58	1.92
B3GALT2	0.62
B3GALT2	-0.12
B3GALT2	1.02
B3GALT2	0.65
CLDN6	-0.97
CLDN6	-0.49
CLDN6	-0.83
CLDN6	-0.75
WDR6	0.04
WDR6	0.66
WDR6	-0.72
WDR6	1.06
TGFB1I1	-0.28
TGFB1I1	0.73
TGFB1I1	0.05
TGFB1I1	0.33
VAPB	-1.05
VAPB	-0.52
VAPB	-0.9
VAPB	-0.69
TMPRSS11B	1.71
TMPRSS11B	1.67
TMPRSS11B	0.38
TMPRSS11B	1.77
MACF1	-0.47
MACF1	-1.02
MACF1	-1.21
MACF1	-0.46
ATG16L1	-0.43
ATG16L1	-0.1
ATG16L1	-0.81
ATG16L1	-0.73
NPSR1	-0.1
NPSR1	0.47
NPSR1	-0.15
NPSR1	0.14
NTAQ1	-0.12
NTAQ1	-0.6
NTAQ1	0.2
NTAQ1	0.94
ASNSD1	1.05
ASNSD1	2.01
ASNSD1	0.62
ASNSD1	1.49
NQO1	-0.56
NQO1	-1.13
NQO1	-1.09
NQO1	0.83
MCHR1	0.39
MCHR1	-0.66
MCHR1	-0.3
MCHR1	-0.25
IGSF1	-0.38
IGSF1	0.39
IGSF1	0.25
IGSF1	0.78
TANC1	0.14
TANC1	-1.87 (active)
TANC1	-0.77
TANC1	-0.03
ARSJ	-0.48
ARSJ	0.21
ARSJ	-0.34
ARSJ	0.6
PLCD1	0.21
PLCD1	2.5
PLCD1	0.85
PLCD1	1.59
RDH13	-0.9
RDH13	-1.04
RDH13	-0.81
RDH13	-0.07
CYBC1	-1.41
CYBC1	-0.29
CYBC1	-0.9
CYBC1	-0.55
DERA	-1.27
DERA	-1.26
DERA	-0.87
DERA	-1.03
HERC2	2.39
HERC2	1.03
HERC2	0.25
HERC2	0.99
MAMDC2	-0.88
MAMDC2	-0.2
MAMDC2	-0.34
MAMDC2	-0.94
SFTPD	0.19
SFTPD	-1.26
SFTPD	-0.1
TRIM3	-0.23
TRIM3	1.38
TRIM3	-0.07
TRIM3	-0.57
DYRK3	-1.86 (active)
DYRK3	-2.04 (active)
DYRK3	-1.9 (active)
DYRK3	-1.23
H4C12	2.38
H4C12	1.5
H4C12	0.89
H4C12	0.62
HOXA6	3.98 (active)
HOXA6	4.43 (active)
HOXA6	5.06 (active)
HOXA6	4.06 (active)
